Publication PMC5812214
These are yes or no findings as the source states them, for the method shown. Binding seen in cells or lysates may run through a third protein. These calls come from enrichment with a bait or labelling near it, and not all partners need be listed.

Amino acid sequences for entries named in this document (tags omitted).
UniProt Q00987: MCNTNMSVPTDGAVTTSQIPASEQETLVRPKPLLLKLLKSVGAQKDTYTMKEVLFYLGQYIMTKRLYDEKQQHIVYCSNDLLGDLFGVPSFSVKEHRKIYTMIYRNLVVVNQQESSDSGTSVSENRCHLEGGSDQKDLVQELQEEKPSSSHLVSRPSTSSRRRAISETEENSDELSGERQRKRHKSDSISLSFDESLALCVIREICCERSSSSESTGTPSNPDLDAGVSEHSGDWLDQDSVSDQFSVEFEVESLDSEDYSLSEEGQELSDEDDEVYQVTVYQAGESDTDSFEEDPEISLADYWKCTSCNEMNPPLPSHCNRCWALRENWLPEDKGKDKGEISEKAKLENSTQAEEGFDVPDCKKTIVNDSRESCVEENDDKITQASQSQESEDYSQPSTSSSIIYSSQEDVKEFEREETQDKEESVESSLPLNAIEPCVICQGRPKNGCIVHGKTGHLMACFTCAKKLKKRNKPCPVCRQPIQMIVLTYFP
UniProt P14649: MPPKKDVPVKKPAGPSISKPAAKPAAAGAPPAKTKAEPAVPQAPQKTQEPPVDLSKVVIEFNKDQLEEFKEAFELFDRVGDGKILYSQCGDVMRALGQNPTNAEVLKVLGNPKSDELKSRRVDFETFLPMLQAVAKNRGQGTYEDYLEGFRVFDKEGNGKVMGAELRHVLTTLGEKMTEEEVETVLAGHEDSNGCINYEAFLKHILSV

Target: myc3-MDM2 (pCMV-myc3-HDM2) (human) (UniProt Q00987)
Assay: affinity purification with mass spectrometry; lysate of Huh7 cells transfected with myc3-MDM2 (50 mM Tris-HCl pH 7.5, 150 mM NaCl, 1% Triton X-100, 1 mM EDTA), anti-myc affinity gel 4 °C 3 h, washed with TBS plus 0.1% Nonidet P-40, eluted with glycine-HCl pH 2.2, NanoLC-ESI-MS/MS

binding: binds
Substance: Myosin Light Chain 6B (MYL6B), endogenous (from UniProt P14649 1-208)
